Results are given in words; binding and its absence hold for the method and conditions named. In cells and extracts the contact can be indirect. A yes stands for co-enrichment or nearness to the bait. Other partners may have been found.
Target: eGFP-Rab28 T26N (zebrafish) (UniProt Q7ZVW0)
Test: affinity purification with mass spectrometry

binding | Binder
binds | Erlin1 (protein, UniProt Q58EG2 1-342) MAHVGAVVAAMAGLMAILLHSSIHKIEEGHLAVYYRGGALLTSPNGPGYHIMLPFITSYRSVQTTLQTDEIKNVPCGTSGGVMIYFDRIEVVNMLIPTSVVDIVRNYTADYDKTLIFNKIHHELNQFCSVHTLQEVYIELFDIIDENLKTALQKDLNCMAPGLTIQAVRVTKPKIPEAIRRNYELMEAEKTRLLITVQTQKVVEKEAETERKKAIIEAQKVAQVAEIQFQQKVMEKETEKKISEIEDAAFLAREKARADAEYYTAAKFAEANTLKLTPEYLQLMKYQAIAANSKIYFGQDIPNMFVDSSASRPAAGESEQLESLSMRESLKKASKPKASEGH
binds | Erlin2 (protein, UniProt A3QK16 1-331) MTLGAVASLILAIGGAAVFSALHKIEEGHVGVYYRGGALLTATSGPGFHLMLPFITTFKSVQTTLQTDEVKNVPCGTGGGVMIYFDRIEVVNYLVPSAVYGIVRNFTADYDKALIFNKVHHELNQFCSVHTLQDVYIGLFDQIDENLKLTLQEDLTSMAPGLIIQAVRVTKPNIPESIRRNYELMESERTKLLIAAQTQKVVEKEAETERKKAVIEAEKVAQVAEIKFGQKVMEKETEKKISQIEDSAYLARQKAKADAEFYSAQRAAEANKLKLTPEYLQLMKFKAIAANSKIYFGSEIPHMFMDSGPGSSSSAASKAIDVLSEGMLDLE

Reference: article doi:10.1101/720029
